# Source: PMC4823986
# Protein sequences, listed by entry. Tags and fused reporters are not part of them. Lines headed by an entry give the natural chain unless they say otherwise; changes in a name come on top. Chains listed by the source or under a name are the forms on record and can include a tag or linker.
# UniProt P46223: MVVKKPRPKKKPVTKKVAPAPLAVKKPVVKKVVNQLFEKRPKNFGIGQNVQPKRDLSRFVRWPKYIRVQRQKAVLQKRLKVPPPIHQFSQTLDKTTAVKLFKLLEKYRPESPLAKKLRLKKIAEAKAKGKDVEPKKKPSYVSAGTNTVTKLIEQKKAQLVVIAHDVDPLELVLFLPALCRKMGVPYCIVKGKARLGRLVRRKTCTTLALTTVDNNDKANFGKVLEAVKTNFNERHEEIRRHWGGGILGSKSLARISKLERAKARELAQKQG
# RpL30 GFP-trap protein (Q9VJ19, form named): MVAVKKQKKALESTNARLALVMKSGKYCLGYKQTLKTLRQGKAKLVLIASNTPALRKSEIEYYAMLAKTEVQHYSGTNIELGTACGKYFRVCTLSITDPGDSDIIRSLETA
# UniProt Q9VTP4: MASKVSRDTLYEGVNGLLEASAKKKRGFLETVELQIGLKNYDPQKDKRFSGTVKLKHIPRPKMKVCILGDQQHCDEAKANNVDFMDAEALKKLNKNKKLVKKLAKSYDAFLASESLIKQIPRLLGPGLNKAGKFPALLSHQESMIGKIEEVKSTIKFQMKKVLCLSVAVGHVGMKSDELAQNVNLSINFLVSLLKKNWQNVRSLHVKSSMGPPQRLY
# No constants are given. Whether binding was seen depends on the method and setting. In cells and extracts the contact can be indirect. Some results given as binding are weak or reduced against the parent protein; the word gives no strength. For part of these data: Sequences can lack the tags named with a protein.
# T1: Clueless (Clu), endogenous in S2R+ cells (Drosophila (endogenous in S2R+ cells)) (UniProt A1ZAB5)
# T1 sequence: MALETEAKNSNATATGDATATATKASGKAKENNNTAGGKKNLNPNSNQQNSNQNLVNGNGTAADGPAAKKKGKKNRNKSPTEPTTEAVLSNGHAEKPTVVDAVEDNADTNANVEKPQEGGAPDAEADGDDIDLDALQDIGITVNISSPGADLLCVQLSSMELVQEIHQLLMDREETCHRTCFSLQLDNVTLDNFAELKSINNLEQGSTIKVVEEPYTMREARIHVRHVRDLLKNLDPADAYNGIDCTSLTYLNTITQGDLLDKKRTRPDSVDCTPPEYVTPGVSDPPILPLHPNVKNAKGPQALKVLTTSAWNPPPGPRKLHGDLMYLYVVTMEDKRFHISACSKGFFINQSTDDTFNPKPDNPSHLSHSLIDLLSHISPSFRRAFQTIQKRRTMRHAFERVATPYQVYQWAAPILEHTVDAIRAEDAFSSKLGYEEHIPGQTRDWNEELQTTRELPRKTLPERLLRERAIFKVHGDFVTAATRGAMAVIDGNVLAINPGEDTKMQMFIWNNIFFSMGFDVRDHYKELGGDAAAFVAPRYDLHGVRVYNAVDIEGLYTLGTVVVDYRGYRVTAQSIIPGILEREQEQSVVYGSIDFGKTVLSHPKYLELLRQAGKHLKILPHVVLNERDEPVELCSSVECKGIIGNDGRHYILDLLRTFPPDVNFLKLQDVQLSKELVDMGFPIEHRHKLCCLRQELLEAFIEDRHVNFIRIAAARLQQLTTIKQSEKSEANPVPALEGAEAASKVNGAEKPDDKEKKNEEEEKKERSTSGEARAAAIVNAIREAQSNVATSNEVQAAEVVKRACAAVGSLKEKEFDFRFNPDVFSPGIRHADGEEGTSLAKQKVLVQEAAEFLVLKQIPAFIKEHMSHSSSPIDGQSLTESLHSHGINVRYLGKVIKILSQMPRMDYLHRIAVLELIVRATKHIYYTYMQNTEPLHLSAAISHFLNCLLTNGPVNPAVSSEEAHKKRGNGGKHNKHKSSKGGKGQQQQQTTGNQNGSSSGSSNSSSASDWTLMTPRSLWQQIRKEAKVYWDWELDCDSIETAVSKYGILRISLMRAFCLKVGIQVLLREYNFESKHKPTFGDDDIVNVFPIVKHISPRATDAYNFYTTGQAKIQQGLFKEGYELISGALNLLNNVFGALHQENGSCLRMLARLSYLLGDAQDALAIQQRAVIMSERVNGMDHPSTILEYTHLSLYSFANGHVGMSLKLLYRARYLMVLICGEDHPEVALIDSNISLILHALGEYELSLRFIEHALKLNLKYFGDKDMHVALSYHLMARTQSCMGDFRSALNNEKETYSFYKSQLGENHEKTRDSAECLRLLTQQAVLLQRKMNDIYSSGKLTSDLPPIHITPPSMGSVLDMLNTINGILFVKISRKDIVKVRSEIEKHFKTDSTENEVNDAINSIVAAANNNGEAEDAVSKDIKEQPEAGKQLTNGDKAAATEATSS
# T2: Eukaryotic initiation factor 3-S9 (eIF3-S9) GFP-trap protein (Drosophila) (UniProt Q0E940)
# T2 sequence: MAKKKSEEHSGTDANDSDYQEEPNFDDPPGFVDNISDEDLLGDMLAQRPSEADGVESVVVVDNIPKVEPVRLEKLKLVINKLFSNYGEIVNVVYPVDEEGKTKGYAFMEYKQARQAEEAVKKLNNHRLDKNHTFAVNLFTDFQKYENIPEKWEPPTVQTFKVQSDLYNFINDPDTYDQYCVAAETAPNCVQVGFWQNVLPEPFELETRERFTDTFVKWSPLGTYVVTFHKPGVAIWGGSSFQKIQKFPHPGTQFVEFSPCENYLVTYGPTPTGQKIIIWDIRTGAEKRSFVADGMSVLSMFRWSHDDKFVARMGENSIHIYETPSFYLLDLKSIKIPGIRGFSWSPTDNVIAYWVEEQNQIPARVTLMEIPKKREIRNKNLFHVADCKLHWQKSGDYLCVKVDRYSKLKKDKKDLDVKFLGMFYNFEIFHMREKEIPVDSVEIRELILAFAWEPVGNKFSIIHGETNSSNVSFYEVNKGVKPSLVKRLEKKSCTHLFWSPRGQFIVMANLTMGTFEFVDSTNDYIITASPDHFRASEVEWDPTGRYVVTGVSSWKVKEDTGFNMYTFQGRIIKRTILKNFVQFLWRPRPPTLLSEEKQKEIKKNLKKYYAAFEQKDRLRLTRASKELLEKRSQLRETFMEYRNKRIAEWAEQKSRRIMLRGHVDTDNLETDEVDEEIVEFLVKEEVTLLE
# T3: myc-tagged small Ribosomal protein RpS7 (Drosophila) (UniProt Q9VA91)
# T3 sequence: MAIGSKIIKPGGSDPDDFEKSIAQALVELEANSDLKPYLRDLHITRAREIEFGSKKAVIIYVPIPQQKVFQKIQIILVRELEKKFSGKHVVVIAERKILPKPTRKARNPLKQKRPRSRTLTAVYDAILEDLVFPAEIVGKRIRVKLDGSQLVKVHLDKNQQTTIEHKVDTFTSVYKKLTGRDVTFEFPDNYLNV
# T4: myc-tagged small Ribosomal protein (RpS) 4 (Drosophila) (UniProt P41042)
# T4 sequence: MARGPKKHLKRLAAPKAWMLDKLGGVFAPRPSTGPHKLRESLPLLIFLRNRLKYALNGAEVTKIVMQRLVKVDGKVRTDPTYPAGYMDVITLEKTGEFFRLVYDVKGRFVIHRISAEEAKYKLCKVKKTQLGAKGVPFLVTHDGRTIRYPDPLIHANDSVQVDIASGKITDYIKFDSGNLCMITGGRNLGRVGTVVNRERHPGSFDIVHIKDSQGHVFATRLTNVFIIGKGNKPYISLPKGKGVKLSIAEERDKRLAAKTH
# B1: full-length Clueless (Clu), myc-tagged and FLAG-tagged copies (protein, UniProt A1ZAB5 1-1448)
# chain: T1 sequence
# B2: myc-tagged small Ribosomal protein RpS7 (protein, UniProt Q9VA91 1-194)
# chain: T3 sequence
# B3: Clueless (Clu), endogenous in adult flies (protein, UniProt A1ZAB5 1-1448)
# chain: T1 sequence
# B4: Clueless (Clu), endogenous in S2R+ cells (protein, UniProt A1ZAB5 1-1448)
# chain: T1 sequence
# B5: myc-tagged small Ribosomal protein (RpS) 4 (protein, UniProt P41042 1-261)
# chain: T4 sequence
# Key:
# [1] = molecular target: T1, Clueless (Clu), endogenous in S2R+ cells (Drosophila (endogenous in S2R+ cells)); assay: co-IP; S2R+ cells transfected with myc-tagged proteins; reciprocal co-IPs with Clu, western blot
# [2] = molecular target: full-length Clueless (Clu), myc-tagged and FLAG-tagged copies (Drosophila) (UniProt A1ZAB5); assay: co-IP; S2R+ cells transfected with both myc- and FLAG-tagged full-length Clu; reciprocal immunoprecipitation, western blot
# [3] = molecular target: RpL7a-myc expressed in adult flies (UAS-RpL7a-myc) (Drosophila) (UniProt P46223); assay: co-IP; cytoplasmic fraction of extract from adult flies expressing UAS-RpL7a-myc; reciprocal co-IPs in mitochondrial isolation buffer with 0.5% Triton X-100 and 1 mM DTT
# [4] = molecular target: RpL30 GFP-trap protein (Drosophila) (UniProt Q9VJ19); assay: co-IP; extract from adult flies of GFP-trap lines; anti-GFP antibody to pull down, western blot for Clu
# [5] = molecular target: RpL10Ab GFP-trap protein (Drosophila) (UniProt Q9VTP4); assay: as above
# [6] = molecular target: T2, Eukaryotic initiation factor 3-S9 (eIF3-S9) GFP-trap protein (Drosophila); assay: as above
# [7] = molecular target: RpL7a-myc expressed in adult flies (UAS-RpL7a-myc) (Drosophila) (UniProt P46223); assay: co-IP; mitochondrial fraction of extract from adult flies expressing UAS-RpL7a-myc; reciprocal co-IPs in mitochondrial isolation buffer with 0.5% Triton X-100 and 1 mM DTT
# [8] = molecular target: T3, myc-tagged small Ribosomal protein RpS7 (Drosophila); assay: co-IP; S2R+ cells transfected with myc-tagged proteins; reciprocal co-IPs with Clu, western blot
# [9] = molecular target: myc-tagged large Ribosomal protein (RpL) 7a (Drosophila) (UniProt P46223); assay: as above
# [10] = molecular target: T4, myc-tagged small Ribosomal protein (RpS) 4 (Drosophila); assay: as above
molecule,measurement,setting,value
myc-tagged large Ribosomal protein (RpL) 7a (from UniProt P46223 1-271),binding,[1],binds
B1,binding,[2],binds
B2,binding,[1],binds
B3,binding,[3],no binding (condition: in the cytoplasmic fraction)
same,binding,[4],binds
same,binding,[5],binds
same,binding,[6],binds
same,binding,[7],binds
B4,binding,[8],binds
same,binding,[9],binds
same,binding,[10],binds
B5,binding,[1],binds
